Among the data in the supplement of paper PMC10849652 are log2 fold change values, retold here.

Sequences of proteins named here, by UniProt entry; tags and fusion partners are left off. A change or cut given only in a name is not applied to a line headed by its entry.
UniProt Q9Y2F5: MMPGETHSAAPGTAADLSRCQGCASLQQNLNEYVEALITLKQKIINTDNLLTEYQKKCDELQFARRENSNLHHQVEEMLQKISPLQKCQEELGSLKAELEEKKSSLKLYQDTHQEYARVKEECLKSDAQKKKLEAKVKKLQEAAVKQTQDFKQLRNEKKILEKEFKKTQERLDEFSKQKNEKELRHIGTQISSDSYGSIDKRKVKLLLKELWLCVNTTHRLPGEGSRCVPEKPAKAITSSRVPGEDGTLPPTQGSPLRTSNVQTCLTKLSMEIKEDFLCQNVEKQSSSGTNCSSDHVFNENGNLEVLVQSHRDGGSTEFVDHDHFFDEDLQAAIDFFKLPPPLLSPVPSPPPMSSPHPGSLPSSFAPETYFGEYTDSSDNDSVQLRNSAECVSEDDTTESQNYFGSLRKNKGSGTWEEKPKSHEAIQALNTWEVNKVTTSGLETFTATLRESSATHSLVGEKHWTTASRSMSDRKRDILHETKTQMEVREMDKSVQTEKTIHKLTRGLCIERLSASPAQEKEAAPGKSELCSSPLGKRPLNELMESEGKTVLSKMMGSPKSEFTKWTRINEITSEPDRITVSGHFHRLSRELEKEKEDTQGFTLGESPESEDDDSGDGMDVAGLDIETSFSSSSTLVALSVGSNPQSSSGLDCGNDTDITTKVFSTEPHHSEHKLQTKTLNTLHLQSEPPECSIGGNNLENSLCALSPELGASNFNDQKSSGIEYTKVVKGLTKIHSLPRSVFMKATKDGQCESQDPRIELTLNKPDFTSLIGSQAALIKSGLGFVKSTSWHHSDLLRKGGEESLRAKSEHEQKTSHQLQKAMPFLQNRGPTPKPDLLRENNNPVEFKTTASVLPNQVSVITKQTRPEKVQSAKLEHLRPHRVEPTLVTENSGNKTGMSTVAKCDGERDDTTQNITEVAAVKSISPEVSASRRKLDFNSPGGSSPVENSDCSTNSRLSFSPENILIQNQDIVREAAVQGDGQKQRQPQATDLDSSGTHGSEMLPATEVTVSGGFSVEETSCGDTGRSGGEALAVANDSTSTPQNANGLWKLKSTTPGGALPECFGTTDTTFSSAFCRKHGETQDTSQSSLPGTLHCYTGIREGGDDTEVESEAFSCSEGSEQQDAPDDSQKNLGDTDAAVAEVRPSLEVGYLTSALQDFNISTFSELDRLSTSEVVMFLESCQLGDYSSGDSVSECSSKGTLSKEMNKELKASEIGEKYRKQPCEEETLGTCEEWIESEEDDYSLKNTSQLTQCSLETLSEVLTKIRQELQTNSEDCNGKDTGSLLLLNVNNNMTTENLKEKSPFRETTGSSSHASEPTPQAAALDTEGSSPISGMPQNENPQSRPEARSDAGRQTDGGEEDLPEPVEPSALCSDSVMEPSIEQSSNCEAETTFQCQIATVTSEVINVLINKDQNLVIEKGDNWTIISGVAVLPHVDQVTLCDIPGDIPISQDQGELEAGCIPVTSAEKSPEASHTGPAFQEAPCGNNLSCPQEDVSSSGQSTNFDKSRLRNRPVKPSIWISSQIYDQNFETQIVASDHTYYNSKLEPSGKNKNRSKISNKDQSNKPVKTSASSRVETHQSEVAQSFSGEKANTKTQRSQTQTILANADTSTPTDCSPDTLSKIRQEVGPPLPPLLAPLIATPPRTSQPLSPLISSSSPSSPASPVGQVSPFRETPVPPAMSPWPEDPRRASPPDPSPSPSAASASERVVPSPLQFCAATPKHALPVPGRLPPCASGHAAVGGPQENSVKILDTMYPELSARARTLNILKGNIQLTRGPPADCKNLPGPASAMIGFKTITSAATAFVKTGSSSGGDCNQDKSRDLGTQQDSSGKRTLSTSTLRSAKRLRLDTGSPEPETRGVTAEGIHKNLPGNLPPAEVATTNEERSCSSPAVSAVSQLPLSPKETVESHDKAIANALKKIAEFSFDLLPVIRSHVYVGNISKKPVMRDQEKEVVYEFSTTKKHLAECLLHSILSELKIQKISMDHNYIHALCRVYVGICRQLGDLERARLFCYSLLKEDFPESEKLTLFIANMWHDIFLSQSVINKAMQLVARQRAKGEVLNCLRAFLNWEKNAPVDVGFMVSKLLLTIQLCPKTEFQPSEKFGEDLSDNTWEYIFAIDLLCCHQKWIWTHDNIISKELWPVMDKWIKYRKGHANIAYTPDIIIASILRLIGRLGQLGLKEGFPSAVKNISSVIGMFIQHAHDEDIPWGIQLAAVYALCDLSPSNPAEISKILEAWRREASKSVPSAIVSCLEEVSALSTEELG
UniProt P50213: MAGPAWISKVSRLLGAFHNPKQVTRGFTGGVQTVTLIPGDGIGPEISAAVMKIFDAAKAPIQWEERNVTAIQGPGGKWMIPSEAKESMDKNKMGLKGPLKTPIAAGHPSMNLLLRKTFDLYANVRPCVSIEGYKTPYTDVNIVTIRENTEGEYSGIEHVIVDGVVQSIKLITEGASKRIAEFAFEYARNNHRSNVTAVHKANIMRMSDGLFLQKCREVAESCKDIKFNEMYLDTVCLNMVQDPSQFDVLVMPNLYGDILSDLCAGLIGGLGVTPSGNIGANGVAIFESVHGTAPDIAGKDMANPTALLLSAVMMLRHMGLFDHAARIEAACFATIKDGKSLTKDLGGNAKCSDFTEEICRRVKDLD
UniProt Q8N6C5: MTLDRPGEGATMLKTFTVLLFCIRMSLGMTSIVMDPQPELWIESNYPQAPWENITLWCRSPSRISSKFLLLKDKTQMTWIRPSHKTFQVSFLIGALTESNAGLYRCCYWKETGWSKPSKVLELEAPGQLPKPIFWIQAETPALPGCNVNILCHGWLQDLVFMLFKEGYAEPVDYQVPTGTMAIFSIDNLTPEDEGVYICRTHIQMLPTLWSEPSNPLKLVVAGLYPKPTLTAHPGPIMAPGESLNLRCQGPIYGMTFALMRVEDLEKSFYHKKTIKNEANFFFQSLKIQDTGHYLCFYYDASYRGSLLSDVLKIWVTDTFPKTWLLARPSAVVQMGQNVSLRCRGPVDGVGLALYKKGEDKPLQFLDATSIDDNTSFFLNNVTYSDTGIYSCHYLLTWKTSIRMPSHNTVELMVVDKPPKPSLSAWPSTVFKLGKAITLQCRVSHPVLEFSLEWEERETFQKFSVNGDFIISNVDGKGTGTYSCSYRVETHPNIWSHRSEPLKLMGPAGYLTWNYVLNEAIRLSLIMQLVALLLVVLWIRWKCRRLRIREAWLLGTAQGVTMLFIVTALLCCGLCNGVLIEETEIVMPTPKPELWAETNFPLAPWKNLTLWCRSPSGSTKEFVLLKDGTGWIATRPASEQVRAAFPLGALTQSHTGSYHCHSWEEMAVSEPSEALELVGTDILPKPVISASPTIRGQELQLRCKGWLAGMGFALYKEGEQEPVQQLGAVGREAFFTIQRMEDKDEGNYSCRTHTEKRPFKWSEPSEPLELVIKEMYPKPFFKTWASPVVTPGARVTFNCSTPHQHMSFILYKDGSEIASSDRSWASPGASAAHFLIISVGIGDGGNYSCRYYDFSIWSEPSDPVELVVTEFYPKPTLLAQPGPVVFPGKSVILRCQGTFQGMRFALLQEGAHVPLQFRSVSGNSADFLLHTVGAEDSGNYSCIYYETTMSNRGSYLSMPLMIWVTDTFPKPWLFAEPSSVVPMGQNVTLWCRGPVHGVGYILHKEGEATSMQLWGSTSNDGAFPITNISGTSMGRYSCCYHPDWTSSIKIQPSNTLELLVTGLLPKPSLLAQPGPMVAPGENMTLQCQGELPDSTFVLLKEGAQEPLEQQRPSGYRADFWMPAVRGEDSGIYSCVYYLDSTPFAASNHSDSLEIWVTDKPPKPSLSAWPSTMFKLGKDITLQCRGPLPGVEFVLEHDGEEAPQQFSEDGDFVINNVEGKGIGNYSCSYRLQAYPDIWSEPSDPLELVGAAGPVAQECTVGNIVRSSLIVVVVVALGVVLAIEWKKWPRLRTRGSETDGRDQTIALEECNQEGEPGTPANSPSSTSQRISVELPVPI
UniProt Q12906, whole entry, looked up: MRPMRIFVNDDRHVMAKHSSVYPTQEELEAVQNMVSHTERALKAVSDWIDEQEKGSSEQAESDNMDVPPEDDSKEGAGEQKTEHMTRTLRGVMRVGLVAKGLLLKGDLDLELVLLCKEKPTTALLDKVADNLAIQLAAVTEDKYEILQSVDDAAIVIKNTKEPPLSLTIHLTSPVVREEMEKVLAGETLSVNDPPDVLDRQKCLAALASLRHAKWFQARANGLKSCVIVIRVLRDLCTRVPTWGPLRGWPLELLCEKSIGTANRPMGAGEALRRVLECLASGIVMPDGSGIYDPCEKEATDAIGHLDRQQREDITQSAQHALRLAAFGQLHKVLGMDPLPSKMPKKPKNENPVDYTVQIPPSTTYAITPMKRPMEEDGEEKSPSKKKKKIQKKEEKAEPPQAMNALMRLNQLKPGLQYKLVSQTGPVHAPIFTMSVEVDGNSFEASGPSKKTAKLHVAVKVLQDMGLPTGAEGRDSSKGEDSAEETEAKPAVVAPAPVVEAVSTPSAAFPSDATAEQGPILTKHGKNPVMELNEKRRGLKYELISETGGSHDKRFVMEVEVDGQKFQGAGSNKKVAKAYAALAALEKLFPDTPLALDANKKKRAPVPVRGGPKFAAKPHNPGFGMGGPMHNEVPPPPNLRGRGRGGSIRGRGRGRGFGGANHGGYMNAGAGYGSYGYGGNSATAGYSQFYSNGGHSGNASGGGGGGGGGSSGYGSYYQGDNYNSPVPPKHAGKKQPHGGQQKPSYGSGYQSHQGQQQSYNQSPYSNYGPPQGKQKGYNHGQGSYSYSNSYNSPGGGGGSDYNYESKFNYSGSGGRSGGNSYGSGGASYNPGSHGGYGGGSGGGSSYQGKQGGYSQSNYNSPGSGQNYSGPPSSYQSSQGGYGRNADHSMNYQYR
UniProt Q96F46, whole entry, looked up: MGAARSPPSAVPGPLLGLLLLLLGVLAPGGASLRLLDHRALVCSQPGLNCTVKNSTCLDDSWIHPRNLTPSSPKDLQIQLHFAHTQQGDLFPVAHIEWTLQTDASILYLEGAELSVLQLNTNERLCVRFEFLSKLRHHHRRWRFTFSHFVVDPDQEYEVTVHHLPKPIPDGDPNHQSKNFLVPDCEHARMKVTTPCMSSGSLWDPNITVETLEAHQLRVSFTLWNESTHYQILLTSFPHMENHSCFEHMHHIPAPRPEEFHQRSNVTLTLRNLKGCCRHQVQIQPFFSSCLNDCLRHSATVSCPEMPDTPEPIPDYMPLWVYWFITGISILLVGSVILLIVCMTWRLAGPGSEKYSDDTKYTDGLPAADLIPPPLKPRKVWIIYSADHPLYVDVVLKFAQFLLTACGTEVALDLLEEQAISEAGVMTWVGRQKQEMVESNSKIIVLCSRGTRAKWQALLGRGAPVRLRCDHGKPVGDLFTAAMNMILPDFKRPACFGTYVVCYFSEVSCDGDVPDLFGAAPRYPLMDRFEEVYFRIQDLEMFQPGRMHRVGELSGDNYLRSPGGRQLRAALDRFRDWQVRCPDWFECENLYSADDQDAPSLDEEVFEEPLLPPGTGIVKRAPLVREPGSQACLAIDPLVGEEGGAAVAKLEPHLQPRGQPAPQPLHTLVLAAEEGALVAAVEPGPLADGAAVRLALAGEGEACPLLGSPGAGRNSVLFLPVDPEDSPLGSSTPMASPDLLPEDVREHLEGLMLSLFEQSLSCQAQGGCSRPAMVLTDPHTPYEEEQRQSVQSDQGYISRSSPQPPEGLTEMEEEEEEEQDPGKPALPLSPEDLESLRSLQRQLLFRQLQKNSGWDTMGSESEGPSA
UniProt P15516: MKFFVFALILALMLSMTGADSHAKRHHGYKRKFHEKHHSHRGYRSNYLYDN
IGKV3D-7, A0A0C4DH55, UniProt A0A0C4DH55, whole entry, looked up: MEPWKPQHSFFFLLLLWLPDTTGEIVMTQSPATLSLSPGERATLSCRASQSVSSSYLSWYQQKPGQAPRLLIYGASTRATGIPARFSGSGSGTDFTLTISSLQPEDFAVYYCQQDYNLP
UniProt Q14773: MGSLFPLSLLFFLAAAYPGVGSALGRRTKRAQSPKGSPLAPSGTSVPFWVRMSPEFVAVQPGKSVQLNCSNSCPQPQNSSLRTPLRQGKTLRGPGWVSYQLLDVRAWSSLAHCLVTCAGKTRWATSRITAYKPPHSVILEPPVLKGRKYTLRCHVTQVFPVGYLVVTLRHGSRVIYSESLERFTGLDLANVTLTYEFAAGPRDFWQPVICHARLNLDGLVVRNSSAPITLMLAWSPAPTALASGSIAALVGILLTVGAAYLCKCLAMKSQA
UniProt Q08334: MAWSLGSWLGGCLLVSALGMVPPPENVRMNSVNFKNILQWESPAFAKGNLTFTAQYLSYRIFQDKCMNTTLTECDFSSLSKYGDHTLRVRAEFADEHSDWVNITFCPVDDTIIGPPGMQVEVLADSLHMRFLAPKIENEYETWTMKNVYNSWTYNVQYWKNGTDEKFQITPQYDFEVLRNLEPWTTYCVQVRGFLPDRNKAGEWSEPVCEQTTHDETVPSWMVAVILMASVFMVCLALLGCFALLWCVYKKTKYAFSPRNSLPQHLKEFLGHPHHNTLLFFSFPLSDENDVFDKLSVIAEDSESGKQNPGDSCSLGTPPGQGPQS

The list shows a part of the results.

Compound in one experiment: CN1CC[C@H](c2c(O)cc(O)c3c(=O)cc(-c4ccccc4Cl)oc23)[C@H](O)C1 [alvocidib]
Nature of the experiment: log2 fold change, soluble protein after heating vs DMSO (PISA); higher = thermal stabilisation; K562 lysate, 10 uM; active = over 0.2 and 3.5 SD of the protein, either way, in both replicates (recomputed). A digest of the protocol:
(§1)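 Values give the log-two fold change in thermal stability against solvent controls, from duplicates. Crude K562 extract at 1 mg/mL protein, made by dounce homogenisation in PBS pH 7.4 with 1 mM MgCl2, was treated with 10 μM compound for 30 min. After 3 min heating across 48°C-58°C, aliquots were pooled, adjusted to 0.5% NP-40 at 4°C and centrifuged at 21,000xg for 90 min. The supernatant was measured by TMTpro 16plex LC-MS/MS with channel sums equalised.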
Regarding HUWE1, A0A087X1S3, the log2 fold change is inactive: -0.15.
Turning to INPP5E (UniProt Q9NRR6), the log2 fold change is inactive: -0.102.
The same measure, in the same setting: to IFT46 isoform 2 (UniProt Q9NQC8) belongs inactive: -0.046; to ICE1 (UniProt Q9Y2F5), inactive: -0.029.
On the same count and under the same terms, the same measure for IGLC3 (UniProt P0DOY3): inactive: -0.051; for IMP4 (UniProt Q96G21): inactive: 0.114; for INO80 (UniProt Q9ULG1): inactive: 0.024.
On to INHBE (UniProt P58166), for which the log2 fold change is inactive: -0.041.
The same measure, in the same setting: the same measure for HVCN1 (UniProt Q96D96): inactive: -0.13; for HYOU1, A0A494C039: inactive: 0.024; for IFT81 (UniProt Q8WYA0): inactive: -0.24.
Same read-out and setting: to HSPH1 (UniProt Q5TBM3) belongs inactive: -0.111; to IL13RA1 (UniProt P78552), inactive: -0.103; to IDH3A isoform 2 (UniProt P50213), inactive: -0.078.
The same measure, in the same setting: to IGSF1 isoform 4 (UniProt Q8N6C5) belongs inactive: -0.019; to HTRA3 (UniProt P83110), inactive: -0.761; to IMPDH2 (UniProt H0Y4R1), inactive: -0.12.
Take ILF3 (UniProt Q12906): the log2 fold change is inactive: 0.045.
Take IGHA2 (UniProt P01877): the log2 fold change is inactive: -0.261.
On the same count and under the same terms, to IL17RA (UniProt Q96F46) belongs inactive: -0.135; to IGHG3 (UniProt P01860), inactive: 0.03; to IGKV1D-33, A0A2Q2TTZ9, inactive: 0.208.
On the same count and under the same terms, the same measure for HTN3 (UniProt P15516): inactive: -0.02; for HTD2 (UniProt P86397): inactive: 0.004; for IGHV3-72, A0A4W8ZXM2: inactive: -0.128.
For the target IFIH1 (UniProt Q9BYX4), the log2 fold change is inactive: 0.004.
Same read-out and setting: to IL6ST (UniProt P40189) belongs inactive: 0.135; to IGKV3-20 (UniProt P01619), inactive: 0.106.
The same measure, in the same setting: to IGKV3D-7, A0A0C4DH55 belongs inactive: 0.032.
With IFNAR1 (UniProt P17181), the log2 fold change is inactive: 0.153.
The same measure, in the same setting: to IDUA (UniProt P35475) belongs inactive: 0.104; to ICAM4 (UniProt Q14773), inactive: 0.
With IGHM isoform 2 (UniProt P01871), the log2 fold change was inactive: -0.125.

Compound in a further experiment: CN1CCc2c(c3ccccc3n2Cc2ccc(C(=O)NO)cc2)C1 [Tubastatin A]
Described as above. The method, boiled down:
as §1
For the target HUWE1, A0A087X1S3, the log2 fold change is inactive: -0.117.
As to ICE1 (UniProt Q9Y2F5), the log2 fold change is inactive: 0.121.
The same measure, in the same setting: the same measure for IFT81 (UniProt Q8WYA0): inactive: 0.116; for HSPH1 (UniProt Q5TBM3): inactive: 0.184; for IMPDH2 (UniProt H0Y4R1): active: -0.554.
The same measure, in the same setting: the same measure for IL10RB (UniProt Q08334): inactive: 0.027; for IGHA2 (UniProt P01877): inactive: 1.22; for IGHG3 (UniProt P01860): inactive: 0.625.
Consider HTD2 (UniProt P86397), for which the log2 fold change was inactive: -0.079.
On to IGHV3-72, A0A4W8ZXM2, for which the log2 fold change is inactive: 0.745.
For IGKV3D-7, A0A0C4DH55, the log2 fold change is inactive: 0.864.
Regarding ICAM4 (UniProt Q14773), the log2 fold change is inactive: 0.112.

Compound in the next experiment: CNC(=O)C1=CC=CC=C1NC2=NC(=NC=C2Cl)NC3=C(C=C(C=C3)N4CCOCC4)OC
The description is as above. The method, boiled down: as §1
As for INPP5E (UniProt Q9NRR6), the log2 fold change is inactive: 0.038.
The same measure, in the same setting: the same measure for IGLC3 (UniProt P0DOY3): inactive: 0.23.
With INHBE (UniProt P58166), the log2 fold change is inactive: 0.295.
Still for that read-out and setting: the same measure for HVCN1 (UniProt Q96D96): inactive: -0.058; for HYOU1, A0A494C039: inactive: -0.094.
For ILF3 (UniProt Q12906), the log2 fold change was inactive: 0.075.
Still for that read-out and setting: to IL10RB (UniProt Q08334) belongs inactive: 0.002; to IGHV3-72, A0A4W8ZXM2, inactive: -0.057.
The same measure, in the same setting: to IGKV3D-7, A0A0C4DH55 belongs inactive: -0.086.

Compound in a further experiment: CNC(=O)c1ccc(Nc2ncc(C(F)(F)F)c(NCc3nccnc3N(C)S(C)(=O)=O)n2)cc1 [defactinib]
The description is as above. A digest of the protocol: as §1
Regarding IFT46 isoform 2 (UniProt Q9NQC8), the log2 fold change is inactive: -0.031.
The same measure, in the same setting: the same measure for IDH3A isoform 2 (UniProt P50213): inactive: -0.034.
As for IGSF1 isoform 4 (UniProt Q8N6C5), the log2 fold change was inactive: -0.155.
Regarding IMPDH2 (UniProt H0Y4R1), the log2 fold change was inactive: 0.101.
On the same count and under the same terms, the same measure for ILF3 (UniProt Q12906): inactive: 0.059.
Same read-out and setting: the same measure for IL10RB (UniProt Q08334): inactive: 0.03; for HTD2 (UniProt P86397): inactive: 0.069.

Compound in the next experiment: CNc1nc(-c2ccc3c(N)n[nH]c3c2)cc(N2C[C@@H](C(=O)NC3CCCCC3)CC[C@H]2C)n1
The description is as above. The method, boiled down:
as §1
For the target HUWE1, A0A087X1S3, the log2 fold change was inactive: -0.164.
For the target ICE1 (UniProt Q9Y2F5), the log2 fold change was inactive: -0.009.
As for IGLC3 (UniProt P0DOY3), the log2 fold change is inactive: -1.76.
As to HYOU1, A0A494C039, the log2 fold change is inactive: 0.065.
Still for that read-out and setting: to IDH3A isoform 2 (UniProt P50213) belongs inactive: 0.116; to IMPDH2 (UniProt H0Y4R1), inactive: 0.014; to ILF3 (UniProt Q12906), inactive: -0.047.
The same measure, in the same setting: the same measure for IL10RB (UniProt Q08334): inactive: 0.029.
Turning to IL17RA (UniProt Q96F46), the log2 fold change is inactive: -0.041.
With IGKV3-20 (UniProt P01619), the log2 fold change is inactive: 0.297.
IFNAR1 (UniProt P17181): the log2 fold change was inactive: 0.009.
In the case of ICAM4 (UniProt Q14773), the log2 fold change is inactive: -0.11.
On to IGHM isoform 2 (UniProt P01871), for which the log2 fold change was inactive: 0.333.
